Measured values taken from article doi:10.1101/2024.12.06.627129.
These are yes or no findings as the source states them, for the method shown. In cells and extracts the contact can be indirect. Some entries that bind do so weakly or less than the wild type.

Sequences of proteins named here, by UniProt entry; tags and fusion partners are left off.
UniProt P53552: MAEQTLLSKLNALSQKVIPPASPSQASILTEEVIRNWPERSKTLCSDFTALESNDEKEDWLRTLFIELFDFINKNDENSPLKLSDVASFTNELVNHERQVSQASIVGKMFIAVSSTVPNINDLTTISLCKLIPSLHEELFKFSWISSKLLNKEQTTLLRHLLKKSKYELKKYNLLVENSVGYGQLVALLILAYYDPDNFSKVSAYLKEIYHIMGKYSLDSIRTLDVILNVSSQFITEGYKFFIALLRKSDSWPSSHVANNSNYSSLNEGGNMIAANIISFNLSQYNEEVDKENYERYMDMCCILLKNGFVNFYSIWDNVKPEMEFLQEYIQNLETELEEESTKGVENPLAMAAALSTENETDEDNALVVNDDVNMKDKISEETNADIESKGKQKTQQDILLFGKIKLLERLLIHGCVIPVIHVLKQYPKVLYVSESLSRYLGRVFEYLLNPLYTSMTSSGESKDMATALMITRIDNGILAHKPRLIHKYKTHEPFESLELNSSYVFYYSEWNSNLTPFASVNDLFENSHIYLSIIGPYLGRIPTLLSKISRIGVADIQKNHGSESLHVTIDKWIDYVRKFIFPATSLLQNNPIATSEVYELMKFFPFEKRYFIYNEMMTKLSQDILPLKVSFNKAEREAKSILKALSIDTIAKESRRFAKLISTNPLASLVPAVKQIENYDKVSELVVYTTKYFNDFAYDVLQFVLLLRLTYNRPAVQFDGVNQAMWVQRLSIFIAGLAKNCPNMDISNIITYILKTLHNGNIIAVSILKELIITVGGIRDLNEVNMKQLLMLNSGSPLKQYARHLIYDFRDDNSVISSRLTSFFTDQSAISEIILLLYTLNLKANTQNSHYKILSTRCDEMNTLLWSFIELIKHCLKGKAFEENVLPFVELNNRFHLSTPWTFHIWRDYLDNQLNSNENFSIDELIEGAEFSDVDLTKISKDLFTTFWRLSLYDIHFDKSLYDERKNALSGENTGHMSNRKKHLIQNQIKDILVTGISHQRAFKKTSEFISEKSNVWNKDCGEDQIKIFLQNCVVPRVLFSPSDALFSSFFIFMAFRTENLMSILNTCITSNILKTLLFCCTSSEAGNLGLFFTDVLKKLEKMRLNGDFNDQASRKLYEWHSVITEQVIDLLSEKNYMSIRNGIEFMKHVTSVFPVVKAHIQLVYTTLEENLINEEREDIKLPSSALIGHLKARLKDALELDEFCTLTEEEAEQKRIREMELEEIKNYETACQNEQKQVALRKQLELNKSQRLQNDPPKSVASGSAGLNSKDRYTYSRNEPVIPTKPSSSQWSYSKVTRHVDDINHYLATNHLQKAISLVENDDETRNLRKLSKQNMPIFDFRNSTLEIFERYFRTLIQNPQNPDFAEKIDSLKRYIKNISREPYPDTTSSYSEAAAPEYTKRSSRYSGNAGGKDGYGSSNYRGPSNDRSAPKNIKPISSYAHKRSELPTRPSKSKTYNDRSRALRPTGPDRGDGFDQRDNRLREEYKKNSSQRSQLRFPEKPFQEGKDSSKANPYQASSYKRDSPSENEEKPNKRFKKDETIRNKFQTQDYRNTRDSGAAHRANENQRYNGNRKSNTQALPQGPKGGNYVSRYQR

T1: Thp2-TAP (S. cerevisiae) (UniProt O13539)
T1 sequence: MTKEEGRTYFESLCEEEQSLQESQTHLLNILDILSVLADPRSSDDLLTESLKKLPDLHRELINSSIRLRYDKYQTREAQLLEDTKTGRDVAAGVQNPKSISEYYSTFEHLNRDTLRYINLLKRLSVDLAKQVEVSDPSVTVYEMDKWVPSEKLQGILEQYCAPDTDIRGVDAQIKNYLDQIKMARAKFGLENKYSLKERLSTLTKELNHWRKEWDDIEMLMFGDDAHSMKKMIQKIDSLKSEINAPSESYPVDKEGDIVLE


Biological target: T1, Thp2-TAP (S. cerevisiae)
Assay: co-IP

| binding | Molecule |
| --- | --- |
| binds | Tho2 (from UniProt P53552 1-1597) |
| binds | Mft1 (protein, UniProt P33441 1-392) MPLSQKQIDQVRTKVHYSEVDTPFNKYLDILGKVTKLTGSIINGTLSNDDSKIEKLTEQNISQLKESAHLRFLDLQSSIDTKKVADENWETCQQETLAKLENLKDKLPDIKSIHSKLLLRIGKLQGLYDSVQVINREVEGLSEGRTSLVVTRAEWEKELGTDLVKFLIEKNYLKLVDPGLKKDSSEERYRIYDDFSKGPKELESINASMKSDIENVRQEVSSYKEKWLRDAEIFGKITSIFKEELLKRDGLLNEAEGDNIDEDYESDEDEERKERFKRQRSMVEVNTIENVDEKEESDHEYDDQEDEENEEEDDMEVDVEDIKEDNEVDGESSQQEDNSRQGNNEETDKETGVIEEPDAVNDAEEADSDHSSRKLGGTTSDFSASSSVEEVK |
